The record followed here is patent EP4831182A1, “COMPOUND HAVING DUAL DEGRADATION ACTIVITY AGAINST IRAK4 AND FLT3 PROTEINS, PHARMACEUTICAL COMPOSITION COMPRISING SAME, AND USE THEREOF” (dated 2026).

Each structure is given as a SMILES string. The structures given here were assigned with low confidence; some may be wrong.

A word on the IC50: it is the midpoint of a concentration-inhibition curve.

The first assay concerns MOLM-13 tumor cells. Description: Inhibition of tumor cell proliferation assay (CellCounting-Lite). The following applies: read-out: MOLM-13 IC50; MOLM-13 cells, 48 hours. Here is the method:
Human acute myeloid leukemia cell line MOLM-13 (ATCC) was used and cultured in a sterile incubator at 37-38 °C, pH 7.2-7.4, under 5% CO2. MOLM-13 cells (1×10^4 per well) were seeded in 96-well plates, treated with compounds at various concentrations, and incubated further.
After 48 hours of cell culture, an equal volume of CellCounting-Lite reagent (DD1101-01, Vazyme) was added, mixed by shaking for 5 minutes, and left at room temperature for 10 minutes. Cell proliferation was measured using a VICTOR Nivo multimode plate reader.
For the compound `COC1CCN(c2nc3nc(N4CCN(CC5CCN(c6ccc7c(c6)C(=O)N(C6CCC(=O)NC6=O)C7=O)CC5)CC4)oc3cc2C(=O)Nc2cccc(-c3cnn(C)c3)n2)CC1` (stereo not shown), the IC50 was found to be 0.516 µM. As to `COC1CCN(c2nc3nc(N4CCN(CC5CN(c6ccc7c(c6)C(=O)N(C6CCC(=O)NC6=O)C7=O)C5)CC4)oc3cc2C(=O)Nc2cccc(-c3cnn(C)c3)n2)CC1` (stereo not shown), the IC50 came to 0.157 µM. Consider `COC1CCN(c2nc3nc(N4CCN(C(=O)CN5CCN(c6ccc7c(c6)C(=O)N(C6CCC(=O)NC6=O)C7=O)CC5)CC4)oc3cc2C(=O)Nc2cccc(-c3cnn(C)c3)n2)CC1` (stereo not shown), for which the IC50 stood at 0.087 µM. Still for that read-out and setting: the figure for `COC1CCN(c2nc3nc(N4CCN(CCN5CCN(c6ccc7c(c6)C(=O)N(C6CCC(=O)NC6=O)C7=O)CC5)CC4)oc3cc2C(=O)Nc2cccc(-c3cnn(C)c3)n2)CC1` (stereo not shown) is 0.129 µM; for `COC1CCN(c2nc3nc(N4CCN(C5CCN(C(=O)c6ccc7c(c6)CN(C6CCC(=O)NC6=O)C7=O)CC5)CC4)oc3cc2C(=O)Nc2cccc(-c3cnn(C)c3)n2)CC1` (stereo not shown) it is 0.087 µM; for `COC1CCN(c2nc3nc(N4CCN(C(=O)C5CCN(c6ccc7c(c6)C(=O)N(C6CCC(=O)NC6=O)C7=O)CC5)CC4)oc3cc2C(=O)Nc2cccc(-c3cnn(C)c3)n2)CC1` (stereo not shown) it is 0.041 µM. As to `COC1CCN(c2nc3nc(N4CCN(CCN5CC6(C5)CN(c5ccc7c(c5)C(=O)N(C5CCC(=O)NC5=O)C7=O)C6)CC4)oc3cc2C(=O)Nc2cccc(-c3cnn(C)c3)n2)CC1` (stereo not shown), the concentration for half-maximal inhibition (IC50) stood at 0.054 µM.

Still in this assay, the particulars now being: summary statement.
Regarding `COC1CCN(c2nc3nc(N4CCN(CC5CN(c6ccc7c(c6)C(=O)N(C6CCC(=O)NC6=O)C7=O)C5)CC4)oc3cc2C(=O)Nc2cccc(-c3cnn(C)c3)n2)CC1` (stereo not shown), the “inhibitory activity against the proliferation of MOLM-13 tumor cells (in words)” value is recorded as “possess inhibitory activity”. Same read-out and setting: to `COC1CCN(c2nc3nc(N4CCN(C(=O)CN5CCN(c6ccc7c(c6)C(=O)N(C6CCC(=O)NC6=O)C7=O)CC5)CC4)oc3cc2C(=O)Nc2cccc(-c3cnn(C)c3)n2)CC1` (stereo not shown) belongs “possess inhibitory activity”; to `COC1CCN(c2nc3nc(N4CCN(CCN5CCN(c6ccc7c(c6)C(=O)N(C6CCC(=O)NC6=O)C7=O)CC5)CC4)oc3cc2C(=O)Nc2cccc(-c3cnn(C)c3)n2)CC1` (stereo not shown), “possess inhibitory activity”; to `COC1CCN(c2nc3nc(N4CCN(C5CCN(C(=O)c6ccc7c(c6)CN(C6CCC(=O)NC6=O)C7=O)CC5)CC4)oc3cc2C(=O)Nc2cccc(-c3cnn(C)c3)n2)CC1` (stereo not shown), “possess inhibitory activity”. On the same count and under the same terms, to `COC1CCN(c2nc3nc(N4CCN(C(=O)C5CCN(c6ccc7c(c6)C(=O)N(C6CCC(=O)NC6=O)C7=O)CC5)CC4)oc3cc2C(=O)Nc2cccc(-c3cnn(C)c3)n2)CC1` (stereo not shown) belongs “possess inhibitory activity”; to `COC1CCN(c2nc3nc(N4CCN(CCN5CC6(C5)CN(c5ccc7c(c5)C(=O)N(C5CCC(=O)NC5=O)C7=O)C6)CC4)oc3cc2C(=O)Nc2cccc(-c3cnn(C)c3)n2)CC1` (stereo not shown), “possess inhibitory activity”.
